pIC50: −log10 of the molar value. Some results were stated once for a whole list of compounds, not compound by compound.
Molecular target: BACE (Homo sapiens, UniProt P56817)
Test: In Vitro Enzymatic BACE FRET (Fluorescence Resonance Energy Transfer) Assay
Format: biochemical
Settings: Enzyme 0.2 nM pre-incubated one hour with inhibitor, FRET substrate 50 nM, acetate pH 4.2

The chains behind the UniProt entries cited, without tags or fusion partners. Residues count along the entry.
UniProt P56817, 46-501, species assumed: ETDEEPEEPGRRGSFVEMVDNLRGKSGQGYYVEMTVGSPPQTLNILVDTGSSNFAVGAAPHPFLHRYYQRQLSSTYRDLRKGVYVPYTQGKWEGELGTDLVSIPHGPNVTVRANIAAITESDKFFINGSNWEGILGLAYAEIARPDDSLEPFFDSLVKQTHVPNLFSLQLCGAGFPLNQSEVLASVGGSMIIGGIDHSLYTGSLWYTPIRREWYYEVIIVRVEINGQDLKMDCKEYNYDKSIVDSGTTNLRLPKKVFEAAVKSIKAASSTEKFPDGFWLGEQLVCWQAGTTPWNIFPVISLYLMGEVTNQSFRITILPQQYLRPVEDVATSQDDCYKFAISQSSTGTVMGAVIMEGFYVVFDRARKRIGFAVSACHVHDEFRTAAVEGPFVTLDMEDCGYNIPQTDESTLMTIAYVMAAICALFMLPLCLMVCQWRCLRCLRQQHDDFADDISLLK

pIC50, ≥ 5.30:
O=C(N[C@@H](Cc1ccccc1)[C@H](O)CN[C@H]1CC2(CCCC2)Oc2ccccc21)c1cc(-c2ccccn2)c(=O)n(C2CCCC2)c1 [Example 150, 1-cyclopentyl-N-((2S,3R)-4-((S)-2,2-spirocyclopentylchroman-4-ylamino)-3-hydroxy-1-phenylbutan-2-yl)-6-oxo-5-(pyridin-2-yl)-1,6-dihydropyridine-3-carboxamide]
CCc1ccc2c(c1)[C@@H](NC[C@@H](O)[C@H](Cc1ccccc1)NC(=O)c1ccc(=O)n(C3CCCC3)n1)CC1(CCC1)O2 [Example 151, 1-cyclopentyl-N-((2S,3R)-4-((S)-6-ethyl-2,2-spirocyclo-butylchroman-4-ylamino)-3-hydroxy-1-phenylbutan-2-yl)-6-oxo-1,6-dihydropyridazine-3-carboxamide]
O=C(N[C@@H](Cc1ccccc1)[C@H](O)CN[C@H]1CC2(CCC2)Oc2ccccc21)c1cc(N2CCCC2=O)c(=O)n(C2CCCC2)c1 [Example 152, 1-cyclopentyl-N-((2S,3R)-4-((S)-2,2-spirocyclobutylchroman-4-ylamino)-3-hydroxy-1-phenylbutan-2-yl)-6-oxo-5-(2-oxopyrrolidin-1-yl)-1,6-dihydropyridine-3-carboxamide]
O=C(N[C@@H](Cc1ccccc1)[C@H](O)CN[C@H]1CC2(CCC2)Oc2ccccc21)c1ccc(=O)n(C2CCCC2)c1 [Example 153, 1-cyclopentyl-N-((2S,3R)-4-((S)-2,2-spirocyclobutylchroman-4-ylamino)-3-hydroxy-1-phenylbutan-2-yl)-6-oxo-1,6-dihydropyridine-3-carboxamide]
CCc1ccc2c(c1)C(C)(NC[C@@H](O)[C@H](Cc1ccccc1)NC(=O)c1cc(N3CCCC3=O)c(=O)n(C3CCCC3)c1)CC1(CCC1)O2 (stereo partly drawn) [Example 154, 1-cyclopentyl-N-((2S,3R)-4-(6-ethyl-4-methyl-2,2-spiro-cyclobutylchroman-4-ylamino)-3-hydroxy-1-phenylbutan-2-yl)-6-oxo-5-(2-oxopyrrolidin-1-yl)-1,6-dihydropyridine-3-carboxamide]
CCc1ccc2c(c1)C(C)(NC[C@@H](O)[C@H](Cc1ccccc1)NC(=O)c1ccc(=O)n(C3CCCC3)c1)CC1(CCC1)O2 (stereo partly drawn) [Example 155, 1-cyclopentyl-N-((2S,3R)-4-(6-ethyl-4-methyl-2,2-spiro-cyclobutylchroman-4-ylamino)-3-hydroxy-1-phenylbutan-2-yl)-6-oxo-1,6-dihydropyridine-3-carboxamide]
O=C(N[C@@H](Cc1ccccc1)[C@H](O)CN[C@H]1CC2(CCC2)Oc2ccc(Br)cc21)c1cc(N2CCCC2=O)c(=O)n(C2CCCC2)c1 [Example 156, N-((2S,3R)-4-((S)-6-bromo-2,2-spirocyclobutylchroman-4-ylamino)-3-hydroxy-1-phenylbutan-2-yl)-1-cyclopentyl-6-oxo-5-(2-oxopyrrolidin-1-yl)-1,6-dihydropyridine-3-carboxamide]
O=C(N[C@@H](Cc1ccccc1)[C@H](O)CN[C@H]1CC2(CCC2)Oc2ccc(Br)cc21)c1ccc(=O)n(C2CCCC2)c1 [Example 157, N-((2S,3R)-4-((8)-6-bromo-2,2-spirocyclobutylchroman-4-ylamino)-3-hydroxy-1-phenylbutan-2-yl)-1-cyclopentyl-6-oxo-1,6-dihydropyridine-3-carboxamide]
CCc1ccc2c(c1)[C@@H](NC[C@@H](O)[C@H](Cc1ccccc1)NC(=O)c1cn(C3CCCC3)c(=O)c3ccccc13)CC1(CCCC1)O2 [Example 158, 2-cyclopentyl-N-((2S,3R)-4-((S)-6-ethyl-2,2-spirocyclopentylchroman-4-ylamino)-3-hydroxy-1-phenylbutan-2-yl)-1-oxo-1,2-dihydroisoquinoline-4-carboxamide]
CCc1ccc2c(c1)[C@@H](NC[C@@H](O)[C@H](Cc1ccccc1)NC(=O)c1cc(-c3ccccc3F)c(=O)n3c1CCC3C)CC1(CCCC1)O2 (stereo partly shown) [Example 159]
CCc1ccc2c(c1)[C@@H](NC[C@@H](O)[C@H](Cc1ccccc1)NC(=O)c1ccc(=O)n(C3CCCCC3)c1)CC1(CCCC1)O2 [Example 160]
CCc1ccc2c(c1)[C@@H](NC[C@@H](O)[C@H](Cc1ccccc1)NC(=O)c1ccc(=O)n(C3CCCC(C)C3)c1)CC1(CCCC1)O2 (stereo partly shown) [Example 161]
CCc1ccc2c(c1)[C@@H](NC[C@@H](O)[C@H](Cc1ccccc1)NC(=O)c1cn(C3CCCC3)c(=O)c3ccccc13)CC1(CCC1)O2 [Example 162]
CCc1ccc2c(c1)[C@@H](NC[C@@H](O)[C@H](Cc1ccccc1)NC(=O)c1ccc(=O)n(C3CCCC3)c1)CC(C)(C)O2 [Example 163]
CCc1ccc2c(c1)[C@H](NC[C@@H](O)[C@H](Cc1ccccc1)NC(=O)c1cc(-c3ccccn3)c(=O)n(C(C)C)c1)CC1(CCCC1)O2 [Example 165, N-((2S,3R)-4((R)-6-ethyl-2,2-spirocyclopentylchroman-4-ylamino)-3-hydroxy-1-phenylbutan-2-yl)-1-isopropyl-6-oxo-5-(pyridin-2-yl)-1,6-dihydropyridine-3-carboxamide]
CCc1ccc2c(c1)[C@H](NC[C@@H](O)[C@H](Cc1ccccc1)NC(=O)c1cc(-c3ccncc3)c(=O)n(C(C)C)c1)CC1(CCC1)O2 [Example 166, N-((2S,3R)-4-((R)-6-ethyl-2,2-spirocyclobutylchroman-4-ylamino)-3-hydroxy-1-phenylbutan-2-yl)-1-isopropyl-6-oxo-5-(pyridin-4-yl)-1,6-dihydropyridine-3-carboxamide]
CCc1ccc2c(c1)[C@H](NC[C@@H](O)[C@H](Cc1ccccc1)NC(=O)c1cc(-c3ccccn3)c(=O)n(C)c1)CC1(CCC1)O2 [Example 167, N-((2S,3R)-4-((R)-6-ethyl-2,2-spirocyclobutylchroman-4-ylamino)-3-hydroxy-1-phenylbutan-2-yl)-1-methyl-6-oxo-5-(pyridin-2-yl)-1,6-dihydropyridine-3-carboxamide]
CCc1ccc2c(c1)[C@H](NC[C@@H](O)[C@H](Cc1ccccc1)NC(=O)c1cc(-c3ccccn3)c(=O)n(CC)c1)CC1(CCC1)O2 [Example 168, 1-ethyl-N-((2S,3R)-4-((R)-6-ethyl-2,2-spirocyclobutylchroman-4-ylamino)-3-hydroxy-1-phenylbutan-2-yl)-6-oxo-5-(pyridin-2-yl)-1,6-dihydropyridine-3-carboxamide]
CCc1ccc2c(c1)[C@@H](NCC[C@@H](NC(=O)c1cc(N3CCCC3=O)c(=O)n(C3CCCC3)c1)[C@H](O)c1ccccc1)CC1(CCC1)O2 [Example 169, 1-cyclopentyl-N-((1R,2R)-4-((8)-6-ethyl-2,2-spirocyclobutyl-3,4-dihydro-2H-chromen-4-ylamino)-1-hydroxy-1-phenylbutan-2-yl)-6-oxo-5-(2-oxopyrrolidin-1-yl)-1,6-dihydropyridine-3-carboxamide]
CCc1ccc2c(c1)C(NCC(O)C(Cc1ccccc1)NC(=O)C1CCC(=O)N1)CC1(CCCC1)O2 (stereo not shown) [Example 192]
CCc1ccc2c(c1)C(NCC(O)C(Cc1cccc(C#N)c1)NC(=O)C1CC(=O)N(c3ccccn3)C1)CC1(CCC1)O2 (stereo not shown) [Example 366]
Cc1ncc2c(n1)CC(C)(C)CC2NC[C@@H](O)[C@H](Cc1ccccc1)NC(=O)c1cc(N2CCCC2=O)c(=O)n(C2CCCC2)c1 (stereo partly shown) [Example 373]
